At least one compound was matched to its structure with a doubt left.
Key:
SCD-1 promoter = test: SCD-1 promoter-driven luciferase reporter in FAO hepatoma cells; assay type: cell-based, murine; conditions: hepatocytes (FAO) treated with a single fatty acid, 300 μM
Description: This possibility was tested using several highly sensitive assays to probe the functional profile and activities of plasma lipids. SCD-1 was chosen as a target because it was determined previously that the suppression of hepatic SCD-1 activity is a major alteration in FABP-deficient mice under diet-induced or genetic obesity. Cao et al., 2006; Maeda et al., 2005. Hepatic SCD-1 expression is regulated by a variety of hormones and nutritional factors such as insulin, glucose, and polyunsaturated fatty acids (PUFAs). Ntambi & Miyazaki, 43 Prog. Lipid Res. 91-104 (2004). […] Chu et al., 26 Mol. Cell Biol. 6786-98 (2006); Ntambi, 40 J. Lipid Res. 1549-58 (1999). The 1.5 kb murine SCD-1 promoter was placed in front of a luciferase reporter and inserted into an adenovirus construct. FAO rat hepatoma cells infected with this adenovirus verified the responsiveness of this reporter to PUFA, consistent with previous observations (FIG. 15). […]
Lipids were extracted from whole plasma and applied to liver cells expressing the SCD-1 promoter reporter gene. […] To control for any difference in the amount of lipids extracted from plasma and to mimic the in vivo regulation of SCD-1 expression, mixtures of FFAs were generated with the same molar ratio detected in WT or FABP-deficient plasma lipids using the major fatty acids listed in FIG. 2C. […]

SCD-1 protein = test: Immunoblotting of Flag-tagged SCD-1 in hepatocytes; assay type: cell-based; conditions: CMV promoter construct
Excerpt: FIG. 3F presents data from the immunoblotting of Flag-tagged SCD-1 in hepatocytes treated with control, palmitate and palmitoleate. Anti-tubulin blot was used as loading control. The observations reported herein also raised the possibility that C16:1n7-palmitoleate might be the lipid species responsible, at least in part, for the metabolic activities linked to adipose tissue FABPs. […] Because palmitoleate is nearly ten-times more abundant in the plasma of FABP^−/− mice than is AA (FIG. 2C), it is most likely accounts for the suppression of SCD-1 under physiologically relevant conditions. The effects of palmitoleate on the levels of SCD-1 protein, which is known to have a very short half-life (Heinemann & Ozols, 68 Prostaglandins Leukot. Essent. Fatty Acids 123-33 (2003)), were also examined. […] Maeda et al., 2005.

[1] = test system: AKT phosphorylation in C2C12 myotubes; test: Insulin-stimulated AKT phosphorylation in C2C12 myotubes; assay type: cell-based; conditions: C2C12 myotubes pre-treated with fatty acid overnight, then insulin
Description: Values of bar plot were determined by phospho-AKT ELISA and corresponding immunoblotting results are shown as Insets.
The bottom panel is the corresponding immunoblotting of total and phosphorylated AKT in cells treated with pooled lipids.
To investigate whether plasma lipids also played a role in regulating muscle insulin action, differentiated C2C12 myotubes were treated with lipid extracts from each genotype and the insulin-stimulated AKT phosphorylation determined using an ELISA system.
The effect of C16:1n7-palmitoleate on muscle insulin signaling was explored by pre-treating C2C12 myotubes with either palmitate or palmitoleate overnight and then stimulating the cells with insulin. […] Conversely, C16:1n7-palmitoleate had little effect on its own in this in vitro setting (FIG. 3G). […]
Samples of 200 μl serum were collected using heparin-coated glass tubes and spun at 13,000 g in a microcentrifuge to separate the plasma. […] Tissue protein lysates was separated with SDS-PAGE gels and phosphorylated or total proteins were detected with the following antibodies: phospho AKT Serine 473, AKT, insulin receptor, phospho-tyrosine (Santa Cruz Biotech.); IRS-1 and IRS-2 (Upstate); phospho-GSK and GSK (Cell Signaling Tech.); phospho-insulin receptor from (Calbiocbem). […]

CCCCCCCCCCCCCCCC(=O)O [palmitate, reference compound]
SCD-1 promoter-driven reporter activity (SCD-1 promoter): increased | Flag-tagged SCD-1 protein level (SCD-1 protein): stabilized SCD-1 | insulin-stimulated AKT phosphorylation [1]: significantly reduced

— US9239334B2, “Fatty acid C16: 1N7-palmitoleate a lipokine and biomarker for metabolic status” (PRESIDENT AND FELLOWS OF HARVARD COLLEGE, priority 2008, dated 2016)
